Values joined by “and” are separate entries in the source; they are usually repeats but may differ in a detail not shown here. Identical values can stand only once. The list shows a part of the results. Single values are uncertain here, since repeats match poorly.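 HEK293T cells were given each compound shortly before transfection with a reporter in which red mCherry is followed by the SARS-CoV-2 frameshift element and then GFP in the −1 frame, so GFP appears only after frameshifting.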
Key:
[1] = test system: SARS-CoV-2 -1 PRF reporter mCherry-FSE-GFP(-1); experiment: mCherry (red) intensity as percent of control; higher = higher upstream reporter expression; details: 10 µM; 24 h; HEK293T
[2] = test system: SARS-CoV-2 -1 PRF reporter mCherry-FSE-GFP(-1); experiment: percent effect, decrease of GFP/mCherry ratio (-1 PRF reporter) relative to controls; higher = stronger frameshift inhibition; details: 10 µM; 24 h; HEK293T

Work on CN(C)CCCSc1ccccc1NC(=O)/C=C/c1ccccc1 [Cinanserin] yielded a mCherry [1] of 69.6% and a percent effect [2] of 9.32%.
O=C(Nc1ccc(C(=O)O)c(O)c1)c1ccccc1 gave a mCherry [1] of 84.8% and a percent effect [2] of 0.162%.
CN(Cc1ccccc1)Cc1ccccc1 [dibemethine] gave a mCherry [1] of 94.6% and a percent effect [2] of -1.91%.
CN1CCC[C@@H]1Cc1c[nH]c2ccc(CCS(=O)(=O)c3ccccc3)cc12 [eletriptan] gave a mCherry [1] of 66.7% and a percent effect [2] of -3.64%.
With CC(CNC1CCCCC1)OC(=O)c1ccccc1 (stereo not given) [hexylcaine] the mCherry [1] was 101% and the percent effect [2] was -4.39%.
CCc1nn(CCCN2CCN(c3cccc(Cl)c3)CC2)c(=O)n1CC [etoperidone] showed a mCherry [1] of 96.9% and a percent effect [2] of -0.624%.
COc1ccc2c(c1)CCC(c1ccccc1)=C2c1ccc(OCCN2CCCC2)cc1 [nafoxidine] was tested, and the mCherry [1] was 45.2% and the percent effect [2] was -5.1%.
In the case of O=C(O)C(=O)O.[NH-][C@@H]1CCCC[C@H]1[NH-].[Pt+2] [Oxaliplatin], the mCherry [1] is reported as 57.2% and the percent effect [2] is reported as -2.85%.
Cn1c(CNc2ccc(C(=N)N)cc2)nc2cc(C(=O)N(CCC(=O)O)c3ccccn3)ccc21 [dabigatran] was tested, and the mCherry [1] was 100% and the percent effect [2] was -2.85%.
O=C(NCCO[N+](=O)[O-])c1cccnc1 [nicorandil] showed a mCherry [1] of 88.1% and a percent effect [2] of -2.36%.
Work on CC[C@H](C)[C@@H]1NC(=O)[C@H](Cc2ccc(OC)cc2)NC(=O)CCCSC[C@@H](C(=O)N2CCC[C@H]2C(=O)N[C@@H](CC(C)C)C(=O)NCC(N)=O)NC(=O)[C@H](CC(N)=O)NC(=O)[C@H](CCC(N)=O)NC1=O yielded a mCherry [1] of 121% and a percent effect [2] of -1.7%.
NCCCC[C@H](N)C(=O)O [lysine] gave a mCherry [1] of 93.2% and a percent effect [2] of 0.339%.
In the case of Cc1cc(NC(=O)/C(C#N)=C(\O)C2CC2)ccc1C(F)(F)F [laflunimus], the mCherry [1] is reported as 71.9% and the percent effect [2] is reported as -1.84%.
O=C(c1ccc2nonc2c1)N1CCCCC1 [farampator] gave a mCherry [1] of 92.5% and a percent effect [2] of -0.429%.
Compound COc1ccc2cc([C@H](C)CO)ccc2c1 has a mCherry [1] of 113% and a percent effect [2] of 0.097%.
For N[C@@H](Cc1c[nH]c2ccccc12)C(=O)O [tryptophan], the mCherry [1] was 94.6% and 72.1% and the percent effect [2] was -1.12% and -3.06%.
CC(C)c1nc(N(C)S(C)(=O)=O)nc(-c2ccc(F)cc2)c1/C=C/[C@@H](O)C[C@@H](O)CC(=O)O showed a mCherry [1] of 108% and a percent effect [2] of -0.936%.
CCN(CC)CCNC(=O)c1ccc(NS(C)(=O)=O)cc1 [sematilide] showed a mCherry [1] of 82.3% and a percent effect [2] of -11.1%.
With COCCCN1CCC(NC(=O)c2cc(Cl)c(N)c3c2OCC3)CC1 [prucalopride] the mCherry [1] was 84.7% and the percent effect [2] was -3.35%.
Compound O=C(CCCCC(=O)Nc1c(I)cc(I)c(C(=O)O)c1I)Nc1c(I)cc(I)c(C(=O)O)c1I has a mCherry [1] of 114% and a percent effect [2] of 0.579%.
CCc1c(Cl)c(O)c(Cl)c(O)c1C(=O)O[C@H]1[C@H](O)[C@H](OC)[C@H](OC/C2=C\C=C\C[C@H](O)/C(C)=C/[C@H](CC)[C@@H](O[C@@H]3OC(C)(C)[C@@H](OC(=O)C(C)C)[C@H](O)[C@@H]3O)/C(C)=C/C(C)=C/C[C@@H]([C@@H](C)O)OC2=O)O[C@@H]1C [Fidaxomicin] showed a mCherry [1] of 83.2% and a percent effect [2] of -3.09%.
Work on C/C=C(/C)C(=O)O[C@H]1[C@H](OC(C)=O)[C@@]2(CO)C(CC1(C)C)C1=CCC3[C@@]4(C)CCC(O[C@@H]5O[C@H](C(=O)O)[C@@H](O[C@@H]6O[C@H](CO)[C@@H](O)[C@H](O)[C@H]6O)[C@H](O)[C@H]5O[C@@H]5O[C@H](CO)[C@@H](O)[C@H](O)[C@H]5O)[C@](C)(CO)C4CC[C@@]3(C)[C@]1(C)C[C@H]2O.C/C=C(\C)C(=O)O[C@H]1[C@H](OC(C)=O)[C@@]2(CO)C(CC1(C)C)C1=CCC3[C@@]4(C)CCC(O[C@@H]5O[C@H](C(=O)O)[C@@H](O[C@@H]6O[C@H](CO)[C@@H](O)[C@H](O)[C@H]6O)[C@H](O)[C@H]5O[C@@H]5O[C@H](CO)[C@@H](O)[C@H](O)[C@H]5O)[C@](C)(CO)C4CC[C@@]3(C)[C@]1(C)C[C@H]2O (stereo not given in full) yielded a mCherry [1] of 110% and a percent effect [2] of 0.505%.
In the case of CN(C)CCCOc1nn(Cc2ccccc2)c2ccccc12 [benzydamine], the mCherry [1] is reported as 106% and 95.7% and the percent effect [2] is reported as -2.5% and -9.86%.
With CONC(=O)Nc1ccc(-c2sc3c(c2CN(C)Cc2ccccc2)c(=O)n(-c2ccccc2)c(=O)n3Cc2c(F)cccc2F)cc1 [sufugolix] the mCherry [1] was 97.5% and the percent effect [2] was -2.73%.
For COc1cc2c(cc1OC)C(=O)C(CC1CCN(Cc3ccccc3)CC1)C2 (stereo not given), the mCherry [1] was 86.7% and the percent effect [2] was -3.47%.
O=C(O)Cn1c(=O)n(Cc2ccc(Br)cc2F)c(=O)c2ccc(Cl)cc21 [zenarestat] gave a mCherry [1] of 95.2% and a percent effect [2] of -6.66%.
CC(O)(CC(=O)O)CC(=O)O [meglutol] gave a mCherry [1] of 98.4% and a percent effect [2] of -1.84%.
Cc1cc(O)cc(C)c1Cl showed a mCherry [1] of 109% and a percent effect [2] of 2.19%.
CC(C)NCC(O)COc1cccc2[nH]c3ccccc3c12 (stereo not given) [carazolol] gave a mCherry [1] of 95.6% and a percent effect [2] of 4.47%.
In the case of C[C@@H]1[C@H](O)[C@@H](C)/C=C/C=C/C=C/C=C/C=C/C=C/C=C/[C@H](O[C@@H]2O[C@H](C)[C@@H](O)[C@H](N)[C@@H]2O)C[C@@H]2O[C@](O)(C[C@@H](O)C[C@@H](O)[C@H](O)CC[C@@H](O)C[C@@H](O)CC(=O)O[C@H]1C)C[C@H](O)[C@H]2C(=O)O [Fungizone], the mCherry [1] is reported as 40.9% and the percent effect [2] is reported as -9.29%.
For CN(C)CCC(c1ccc(Cl)cc1)c1ccccn1 (stereo not given) [chlorphenamine], the mCherry [1] was 110% and 97.9% and the percent effect [2] was -0.453% and -4.06%.
CC(=O)N(CC(O)CN(C(C)=O)c1c(I)c(C(=O)NCC(O)CO)c(I)c(C(=O)NCC(O)CO)c1I)c1c(I)c(C(=O)NCC(O)CO)c(I)c(C(=O)NCC(O)CO)c1I (stereo not given) [iodixanol] gave a mCherry [1] of 109% and a percent effect [2] of 1.02%.
C1COC(NC(C2CC2)C2CC2)=N1 [rilmenidine] gave a mCherry [1] of 90.7% and a percent effect [2] of -2.21%.
Compound C[C@@H](O[C@H]1OCCN(Cc2n[nH]c(=O)[nH]2)[C@H]1c1ccc(F)cc1)c1cc(C(F)(F)F)cc(C(F)(F)F)c1 [Emend] has a mCherry [1] of 117% and a percent effect [2] of -5.54%.
Compound CCc1nn(CCCN2CCN(c3cccc(Cl)c3)CC2)c(=O)n1CCOc1ccccc1 [nefazodone] has a mCherry [1] of 95.7% and a percent effect [2] of -5.89%.
Work on CCCCC[C@H](O)/C=C/[C@H]1[C@H](O)CC(=O)[C@@H]1CCCCCCC(=O)O [Alprostadil] yielded a mCherry [1] of 102% and a percent effect [2] of 2.36%.
In the case of C=N[C@@H](C(=O)N[C@@H]1C(=O)N2[C@@H]1SC(C)(C)[C@@H]2C(=O)O)c1ccccc1, the mCherry [1] is reported as 81.6% and the percent effect [2] is reported as -2.74%.
O=C(OCC(O)CO)c1ccccc1Nc1ccnc2cc(Cl)ccc12 (stereo not given) [glafenine] showed a mCherry [1] of 108% and a percent effect [2] of -1.27%.
Cc1ccc([C@@H]2O[C@H](CO)[C@@H](O)[C@H](O)[C@H]2O)cc1Cc1ccc(-c2ccc(F)cc2)s1 [Canagliflozin] showed a mCherry [1] of 93.8% and a percent effect [2] of -2.79%.
In the case of C=C1c2cccc(O)c2C(O)=C2C(=O)[C@]3(O)C(O)=C(C(N)=O)C(=O)[C@@H](N(C)C)[C@@H]3[C@@H](O)[C@H]12 [metacycline], the mCherry [1] is reported as 61% and the percent effect [2] is reported as -1.49%.
CC1(C)S[C@@H]2[C@H](NC(=O)[C@H](C(=O)O)c3ccsc3)C(=O)N2[C@H]1C(=O)O [ticarcillin] was tested, and the mCherry [1] was 86% and the percent effect [2] was -1.54%.
Cc1ncc([N+](=O)[O-])n1C showed a mCherry [1] of 105% and a percent effect [2] of 1.44%.
In the case of CC[C@H](C)C(=O)O[C@H]1CCC=C2C=C[C@H](C)[C@H](CC[C@@H]3C[C@@H](O)CC(=O)O3)[C@H]21 [mevastatin], the mCherry [1] is reported as 83.7% and 68.2% and the percent effect [2] is reported as -3.41% and -8.72%.
Cc1cc(=O)c(C(=O)N[C@@H](C(=O)N[C@@H]2C(=O)N3C(C(=O)O)=C(CSc4nnnn4C)CS[C@H]23)c2ccc(O)cc2)c[nH]1 showed a mCherry [1] of 104% and a percent effect [2] of -4.01%.
Work on CN1CCN(CCC(=O)N2c3ccccc3Sc3ccc(C(F)(F)F)cc32)CC1 [ftormetazine] yielded a mCherry [1] of 17% and a percent effect [2] of -6.78%.
Work on Cc1cccc(C)c1NC(=O)CN(CC(=O)O)CC(=O)O [lidofenin] yielded a mCherry [1] of 89.6% and a percent effect [2] of -0.673%.
For COC(=O)[C@@H](N)Cc1ccc(O)c(O)c1 [melevodopa], the mCherry [1] was 84.8% and the percent effect [2] was -0.265%.
For Nc1nc(=O)c2c([nH]1)NC[C@@H](CNc1ccc(C(=O)N[C@@H](CCC(=O)O)C(=O)O)cc1)N2 [Tetrahydrofolate], the mCherry [1] was 97.2% and the percent effect [2] was -2.34%.
Nc1nc2ccc(OC(F)(F)F)cc2s1 was tested, and the mCherry [1] was 96.9% and the percent effect [2] was -0.0564%.
CCN(CC)C(=O)N1CCN(C)CC1 [diethylcarbamazine] gave a mCherry [1] of 114% and a percent effect [2] of -10.6%.
For C[n+]1ccccc1C=NO [pralidoxime iodide], the mCherry [1] was 108% and the percent effect [2] was -0.676%.
Work on O=C(C[C@H](CSc1ccccc1)C(=O)O)c1ccc(-c2ccc(Cl)cc2)cc1 [tanomastat] yielded a mCherry [1] of 79% and a percent effect [2] of 1.66%.
Compound COc1ccccc1OCC(O)COC(N)=O (stereo not given) [methocarbamol] has a mCherry [1] of 90.3% and a percent effect [2] of -2.67%.
With NCCCC[C@H](N[C@@H](CCc1ccccc1)C(=O)O)C(=O)N1CCC[C@H]1C(=O)O the mCherry [1] was 99.6% and the percent effect [2] was -1.62%.
CC1=C(C/C=C(\C)CCC[C@H](C)CCC[C@H](C)CCCC(C)C)C(=O)c2ccccc2C1=O gave a mCherry [1] of 83.3% and a percent effect [2] of -0.559%.
For CCC(=O)NS(=O)(=O)c1ccc(-c2c(-c3ccccc3)noc2C)cc1 [parecoxib], the mCherry [1] was 79.6% and the percent effect [2] was -15.2%.
For Cc1onc(NS(=O)(=O)c2ccccc2-c2ccc(-c3ncco3)cc2CN(C)C(=O)CC(C)(C)C)c1C [edonentan], the mCherry [1] was 80.8% and the percent effect [2] was -4.07%.
With O=c1cc[nH]c(=O)[nH]1 the mCherry [1] was 82.3% and the percent effect [2] was -1.38%.
CCOC(=O)C1=C(C)NC(C)=C(C(=O)OCC)C1c1cccc2nonc12 [darodipine] was tested, and the mCherry [1] was 96.1% and the percent effect [2] was 1.91%.
N[C@@H](Cc1cc(I)c(Oc2ccc(O)c(I)c2)c(I)c1)C(=O)O showed a mCherry [1] of 106% and a percent effect [2] of -2.12%.
CCOc1ccccc1OCC1CNCCO1 (stereo not given) [viloxazine] was tested, and the mCherry [1] was 87.6% and the percent effect [2] was 0.333%.
In the case of COc1ccc(CCNC[C@H](O)c2ccc(O)cc2)cc1OC [denopamine], the mCherry [1] is reported as 66.8% and the percent effect [2] is reported as -13.5%.
Compound COC(=O)[C@@H]1[C@H]2C[C@H]3c4[nH]c5ccccc5c4CCN3C[C@@H]2CC[C@@H]1O has a mCherry [1] of 114% and a percent effect [2] of 17.9%.
With N#Cc1ccc(C(c2ccc(C#N)cc2)n2cncn2)cc1 [letrozole] the mCherry [1] was 97.7% and 95.4% and the percent effect [2] was -2.84% and -3.01%.
Work on N#C[C@@H]1C[C@@H]2C[C@@H]2N1C(=O)[C@@H](N)C12CC3CC(CC(O)(C3)C1)C2 yielded a mCherry [1] of 104% and a percent effect [2] of 2.26%.

— the supplement of paper PMC8256030
